This is one part of the list.

The subject of the assay is T1, CTL2-GFP (C. trachomatis L2/434/Bu, GFP-expressing).
T1 construct: L2/434/Bu, GFP-expressing
On the set-up: species or system HeLa; Intracellular C. trachomatis growth in HeLa cells, bulk GFP fluorescence relative to DMSO. The following applies: bulk GFP, single well; 28.5 h, 10 µM; inhibitor.
For `COc1ccc(CCNC(=O)CCn2nc(C)c(Cl)c2C)cc1C` [CBK281643], the “% of control remaining” value is listed as 111.837%.
`Cc1ccc2[nH]c(C)c(CC(=O)N(C)CCN3CCCCC3)c2c1` [CBK282749]: the “% of control remaining” value is 126.487%.
Take `O=[N+]([O-])c1cc(CN2CCN(c3ccccc3)CC2)c(O)c2ncccc12` [CBK218696]: the “% of control remaining” value was found to be 100%.
Regarding `COc1cccc(CC(=O)N2CCC(Cc3ccccc3-c3ccccc3)(C(N)=O)CC2)c1` [CBK285730], the “% of control remaining” value is on record as 138.906%.
As for `Cc1nc(CNCc2c(C(C)C)nn(C)c2N(C)C)cs1` [CBK305119], the figure is 121.247%.
Consider `CN(C)CCCNC(=O)c1ccc([N+](=O)[O-])o1` [CBK262118], for which the “% of control remaining” value is 36.3016%.
In the case of `CCOc1cc(S(=O)(=O)NCc2ccncc2)ccc1Br` [CBK270147], the “% of control remaining” value is on record as 115.71%.
In the case of `O=S(=O)(NCCc1nc2ccccc2[nH]1)c1ccc(Cl)c(Cl)c1` [CBK264416], the “% of control remaining” value came out at 107.36%.
As for `O=C(NCc1nc2ccccc2[nH]1)c1cc(Br)cnc1N1CCOCC1` [CBK076278], the “% of control remaining” value is listed as 116.345%.
On to `O=C(CSc1nccn(-c2ccc(F)cc2)c1=O)Nc1ccc(F)cc1` [CBK287768], for which the “% of control remaining” value amounted to 111.713%.
With `CCN(CC)C(=O)c1ccsc1NS(=O)(=O)c1ccc(Br)cc1` [CBK042318], the “% of control remaining” value was 100%.
Regarding `c1ccc(OCCN2CCCN(c3cc(OCC4COc5ccccc5O4)ncn3)CC2)cc1` (centres unmarked) [CBK083395T], the “% of control remaining” value stood at 125.381%.
With `O=C(NCc1ccc(C(=O)O)cc1)NC1CCCCC1` [CBK286980], the “% of control remaining” value was 131.895%.
Regarding `Cc1ccc(C)c(CC(=O)N(CCC(=O)O)C2CCOCC2)c1` [CBK305469], the “% of control remaining” value came to 158.451%.
Take `CN(C)CCCn1cccc1C=O` [CBK261993G]: the “% of control remaining” value is 107.255%.
Consider `COc1ccc([C@@]23CC[C@@H](NC(=O)Nc4cc(C)nc(C)c4)C[C@@H]2N(C)CC3)cc1OC` [CBK045876], for which the “% of control remaining” value was 120.142%.
As for `COc1ccc(C2=NN(C(=O)CCCC(=O)O)C(c3ccc4nccnc4c3)C2)cc1OC` (centres unmarked) [CBK297785], the figure is 173.478%; as for `Cc1cccc(CN2CCC(NC(=O)C3(C#N)CCCC3)CC2)c1` [CBK305781], 186.186%.
As to `CC(CNC(=O)COc1cc(Cl)c(Cl)cc1Cl)CN(C)C` (centres unmarked) [CBK266766], the “% of control remaining” value is listed as 175.378%.
The result for `CC(C)(C)c1ccc(-c2ccc3ccc(N)nc3n2)cc1` [CBK061872] reads 92.0488%; that for `O=C(c1[nH]c2ccccc2c1NS(=O)(=O)Cc1ccccc1)N1CCOCC1` [CBK050067], 101.586%.
On to `OCCn1c(COc2cccc3cccnc23)nc2ccccc21` [CBK269942], for which the “% of control remaining” value is 104.423%.
For `Cc1cc(=O)[nH]c(C)c1C(=O)N1CCC(N2CCCC(CO)C2)CC1` (centres unmarked) [CBK307158], the “% of control remaining” value is 125.098%.
Regarding `O=C(Cc1ccsc1)N1CCN(C(=O)c2ccco2)CC1` [CBK144446], the “% of control remaining” value is on record as 110.825%.
For `O=C(C1CC2C=CC1C21CC1)N1CCC(Oc2cccnc2)CC1` (centres unmarked) [CBK281501], the “% of control remaining” value worked out at 127.92%.
In the case of `CCN1C(=O)COC[C@@H]1[C@H](O)c1ccc(NC(=O)c2ccc(C#N)cc2)cc1` [CBK289689], the “% of control remaining” value stood at 126.972%.
Regarding `Nc1cc(Cl)nc(SCC2CCCCC2)n1` [CBK007970], the “% of control remaining” value was determined as 78.5075%.
As for `CCNS(=O)(=O)c1ccc2c(c1)N(Cc1nc(-c3ccco3)no1)CC2` [CBK306184], the “% of control remaining” value came to 101.353%.
On to `CN(C)c1cccc(-c2cc(Nc3ccc4c(c3)OCCO4)ncn2)c1` [CBK090808], for which the “% of control remaining” value is reported as 172.734%.
With `CCCCCOc1ccc(NS(=O)(=O)c2cccc(C(=O)O)c2)cc1` [CBK299795], the “% of control remaining” value came to 117.704%.
On to `Nc1cc(O)n(Cc2ccco2)c(=S)n1` [CBK006010], for which the “% of control remaining” value is 106.995%.
Turning to `FC(F)(F)c1ccc(CN2CCC(Oc3nccnc3OCc3cccnc3)CC2)cc1` [CBK083160T], the “% of control remaining” value was 138.699%.
With `Cc1cc(NC(=O)c2ccc(Br)cc2)nc2c1c(=O)oc1ccccc12` [CBK291262], the “% of control remaining” value is listed as 133.571%.
The result for `Cc1[nH]c2ccccc2c1C(=O)CSc1nc(N)cc(=O)[nH]1` [CBK297511] reads 129.302%.
With `COCCN1C(=O)C2(CC(=O)N(Cc3ccccc3)C2=O)c2cc(OC)ccc21` (centres unmarked) [CBK075177], the “% of control remaining” value was 101.525%.
`COc1ccc(OCC(=O)Nc2cc3oc4ccccc4c3cc2OC)cc1` [CBK262608]: the “% of control remaining” value stood at 109.829%.
In the case of `c1cncc(CNc2nc(-c3cccs3)cn3ccnc23)c1` [CBK066687], the “% of control remaining” value worked out at 161.185%.
As to `CC1(C)CC(=O)C(C(=S)Nc2ccc(F)cc2)=C(NCc2ccc3c(c2)OCO3)C1` [CBK264779], the “% of control remaining” value is on record as 100%.
`COc1cncc(-c2cc(Nc3ccc(O)cc3)ncn2)c1` [CBK090752]: the “% of control remaining” value amounted to 118.574%.
Consider `COc1ccccc1-c1nccnc1NCC(C)O` (centres unmarked) [CBK037637], for which the “% of control remaining” value was determined as 110.911%.
As for `CCOc1ccc(NC(=O)N(Cc2ccccn2)CC2CCCO2)cc1` (centres unmarked) [CBK306847], the “% of control remaining” value came out at 121.501%.
In the case of `c1c(CC2CCCCC2)nnn1[C@H]1CO[C@H]2[C@@H]1OC[C@@H]2NCC1CC1` [CBK289511], the “% of control remaining” value is on record as 118.394%.
In the case of `O=C(Cc1ccccc1)Nc1ccc(Oc2ccc(C(=O)O)c(C(=O)O)c2)cc1` [CBK263611], the “% of control remaining” value was 126.093%.
`Cn1ccnc1C(O)(c1ccccc1)c1nccn1C` [CBK262084]: the “% of control remaining” value was 118.081%.
Consider `Cc1ccc(-c2cc(CC3(C(=O)NC4CC4)CCOCC3)on2)cc1` [CBK284946], for which the “% of control remaining” value is 117.011%.
For `COc1ccc(-c2cc(-c3c(O)ccc4c(C)cc(=O)oc34)nc(N)n2)cc1OC` [CBK074619], the “% of control remaining” value was found to be 147.008%.
In the case of `CCN(CC1CCOC1)C(=O)c1cn2ccccc2n1` (centres unmarked) [CBK305653], the “% of control remaining” value stood at 122.661%.
Regarding `Fc1ccc(C2NC(S)=NC3=C2N2CCC3CC2)cc1` (centres unmarked) [CBK288390], the “% of control remaining” value is given as 135.909%.
As for `Cn1nc(C2CCN(C(=O)Cc3ccsc3)CC2)c2cccnc21` [CBK284986], the “% of control remaining” value is on record as 99.2912%.
Consider `Cc1nccnc1N1CCC2(CCCN(CC3CCC3)C2=O)C1` (centres unmarked) [CBK306806], for which the “% of control remaining” value is listed as 90.8903%.
Regarding `CC(C)CNC(=O)N1CCNC(=O)C1` [CBK155864], the “% of control remaining” value is 135.848%.
The result for `Cn1ccnc1Sc1cc(C(F)(F)F)ccn1` [CBK093798] reads 154.721%.
As for `CCC(CC(=O)NC1CCCOC1)c1c[nH]c2ccccc12` (centres unmarked) [CBK282521], the figure is 102.957%; as for `CN(Cc1ccc(Cl)c(F)c1)C(=O)c1cn[nH]c1C1CCCCN1` (centres unmarked) [CBK304742], 141.601%.
On to `O=C1NCCNC(=O)C2(C/C=C/COc3ccccc31)CCCN(C(=O)c1cnco1)C2` (centres unmarked) [CBK291993], for which the “% of control remaining” value came to 136.451%.
Turning to `CCOc1ccc(NC(=O)Cn2c3c(c(-c4ccccc4)cc2=O)CCCC3)cc1` [CBK294457], the “% of control remaining” value was determined as 165.213%.
Take `CC(C)c1ccc(OCC(=O)NNC(=O)c2ccco2)c(Br)c1` [CBK267224]: the “% of control remaining” value is recorded as 159.613%.
With `O=S(=O)(c1ccc(Cl)cc1)N1CCN(S(=O)(=O)N2CCCCC2)CC1` [CBK267075], the “% of control remaining” value worked out at 163.117%.
Regarding `CN(C)C(C(=O)NCC1(C)COC1)c1ccc(Cl)cc1` (centres unmarked) [CBK281753], the “% of control remaining” value came to 127.665%.
As for `COc1ccc(NC(=O)N[C@H]2CO[C@H]3[C@@H]2OC[C@@H]3n2cc(-c3ccccc3)nn2)cc1` [CBK289506], the figure is 138.875%; as for `CN(C)CCCn1nc2n(c1=O)-c1ccccc1SC(c1ccccc1)C2` (centres unmarked) [CBK016063], 117.852%.
As to `COCCNC(=O)c1cnc2ccc(OC)cc2c1O` [CBK159999], the “% of control remaining” value was found to be 112.283%.
As to `FC(F)(F)c1ccnc(OCCCc2ccncc2)n1` [CBK115799], the “% of control remaining” value was determined as 111.713%.
As for `O=C(NC(=S)Nc1ccc2oc(-c3ccncc3)nc2c1)c1cc(Br)ccc1Cl` [CBK264343], the figure is 135.807%; as for `O=C(O)CCNc1ncnc2ccccc12` [CBK126920], 128.742%; as for `CC(C)NS(=O)(=O)c1ccc(OCC(=O)Nc2ccc3c(c2)OCCO3)cc1` [CBK265915], 165.069%.
Regarding `O=C(O)Cn1cc(C(=O)COc2ccccc2)c2ccccc21` [CBK286708], the “% of control remaining” value is 105.406%.
`COc1ccccc1-c1cnc(N)c(N2CCN(CCO)CC2)n1` [CBK063403]: the “% of control remaining” value was 202.626%.
The result for `Cc1nn(C)c(C)c1NC(=O)COc1ccc(C#N)cc1` [CBK306011] reads 108.178%; that for `CC(C)C(=O)N1CC2(CCN(Cc3ccc(C(C)C)cc3)CC2)c2ccccc21` [CBK122702], 102.656%.
For `O=C(O)CN1C(=O)C2(CC(=O)N(Cc3ccccc3)C2=O)c2cc(F)ccc21` (centres unmarked) [CBK076173], the “% of control remaining” value is 140.376%.
The result for `COc1ccc(CC(=O)N2CCC(C3OCc4cc(-c5ccc(C(=O)N(C)C)cc5)ccc4O3)CC2)cc1` (centres unmarked) [CBK149759] reads 165.363%; that for `COc1ccc(-c2c[nH]c3c(=S)[nH]cnc23)cc1` [CBK288462], 143.245%; that for `Cc1cc(C)n(C2CCN(Cc3cnn(C4CCCCC4)c3)CC2)n1` [CBK281804], 146.957%.
Turning to `COCCNc1cc(-c2ccc(SC)cc2)ncn1` [CBK090795], the “% of control remaining” value stood at 97.3067%.
As to `Cc1cc(NC(=O)c2ccc3c(c2)OCO3)nc2c1c(=O)oc1ccccc12` [CBK291121], the “% of control remaining” value was determined as 120.461%.
As for `COc1ccccc1NC(=O)CSc1nc(O)c2c(C)cc(C)nc2n1` [CBK266095], the figure is 176.359%.
Consider `C=CCSc1nc2ccccc2c(=O)n1CCc1ccccc1` [CBK055285], for which the “% of control remaining” value is given as 107.552%.
`CC(=O)Nc1cccc(NC(=O)CN(CCO)C2CCCCC2)c1` [CBK304239]: the “% of control remaining” value is 104.682%.
As to `Cc1ccc(SCCC(=O)NC(CC(=O)O)C(=O)O)cc1` (centres unmarked) [CBK295174], the “% of control remaining” value turned out to be 163.397%.

For the origin of these results see paper PMC12040169 (PLOS Biology, 2025).
